Reference: PMC12808752
No constants are given. Whether binding was seen depends on the method and setting. Binding seen in cells or lysates may run through a third protein. Where a sequence is shown, tags or fusion partners need not be part of it.

Biological target: T1, Euchromatic histone lysine methyltransferase 2 (EHMT2) (human (endogenous in uveal melanoma cell lines)), Q96KQ7
T1 chain: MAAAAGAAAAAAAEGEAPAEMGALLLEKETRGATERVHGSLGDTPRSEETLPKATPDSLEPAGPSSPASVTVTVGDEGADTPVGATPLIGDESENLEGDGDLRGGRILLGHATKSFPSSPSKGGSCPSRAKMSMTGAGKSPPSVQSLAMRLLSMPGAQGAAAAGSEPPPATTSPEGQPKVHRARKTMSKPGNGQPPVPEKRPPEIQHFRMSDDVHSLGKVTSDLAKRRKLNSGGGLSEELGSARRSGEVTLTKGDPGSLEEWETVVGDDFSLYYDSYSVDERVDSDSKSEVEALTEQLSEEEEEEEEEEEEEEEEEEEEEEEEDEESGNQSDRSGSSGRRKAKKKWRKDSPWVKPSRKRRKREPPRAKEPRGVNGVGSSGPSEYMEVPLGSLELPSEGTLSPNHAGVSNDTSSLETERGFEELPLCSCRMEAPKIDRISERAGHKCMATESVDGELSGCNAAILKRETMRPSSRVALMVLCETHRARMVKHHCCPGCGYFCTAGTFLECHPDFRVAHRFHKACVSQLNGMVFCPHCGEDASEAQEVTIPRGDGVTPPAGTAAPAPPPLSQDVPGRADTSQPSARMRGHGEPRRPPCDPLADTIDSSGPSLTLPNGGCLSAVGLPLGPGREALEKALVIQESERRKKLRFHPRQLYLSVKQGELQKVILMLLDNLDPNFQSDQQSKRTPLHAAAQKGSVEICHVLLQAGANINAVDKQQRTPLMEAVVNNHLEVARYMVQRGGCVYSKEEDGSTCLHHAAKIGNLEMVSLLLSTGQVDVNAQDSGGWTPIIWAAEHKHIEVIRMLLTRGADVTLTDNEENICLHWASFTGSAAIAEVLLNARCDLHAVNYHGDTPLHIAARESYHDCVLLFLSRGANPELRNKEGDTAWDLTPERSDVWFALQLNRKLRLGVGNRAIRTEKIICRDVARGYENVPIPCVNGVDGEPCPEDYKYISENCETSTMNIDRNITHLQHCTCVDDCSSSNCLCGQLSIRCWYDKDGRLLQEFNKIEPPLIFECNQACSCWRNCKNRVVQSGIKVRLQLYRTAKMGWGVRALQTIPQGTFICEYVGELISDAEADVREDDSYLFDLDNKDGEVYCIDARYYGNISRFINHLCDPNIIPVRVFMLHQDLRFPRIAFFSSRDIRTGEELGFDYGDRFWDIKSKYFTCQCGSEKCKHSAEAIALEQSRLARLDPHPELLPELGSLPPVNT
Assay: co-IP; UM cells; EHMT2 antibody listed at 1:100 for immunoprecipitation, EHMT1 antibody at 1:1000 for Western blot; no further conditions shown (Appendix Fig. S1A)
Conditions: remark: other sources report otherwise

B1: EHMT1, Q9H9B1 1-1298 (enzyme)
chain: MAAADAEAVPARGEPQQDCCVKTELLGEETPMAADEGSAEKQAGEAHMAADGETNGSCENSDASSHANAAKHTQDSARVNPQDGTNTLTRIAENGVSERDSEAAKQNHVTADDFVQTSVIGSNGYILNKPALQAQPLRTTSTLASSLPGHAAKTLPGGAGKGRTPSAFPQTPAAPPATLGEGSADTEDRKLPAPGADVKVHRARKTMPKSVVGLHAASKDPREVREARDHKEPKEEINKNISDFGRQQLLPPFPSLHQSLPQNQCYMATTKSQTACLPFVLAAAVSRKKKRRMGTYSLVPKKKTKVLKQRTVIEMFKSITHSTVGSKGEKDLGASSLHVNGESLEMDSDEDDSEELEEDDGHGAEQAAAFPTEDSRTSKESMSEADRAQKMDGESEEEQESVDTGEEEEGGDESDLSSESSIKKKFLKRKGKTDSPWIKPARKRRRRSRKKPSGALGSESYKSSAGSAEQTAPGDSTGYMEVSLDSLDLRVKGILSSQAEGLANGPDVLETDGLQEVPLCSCRMETPKSREITTLANNQCMATESVDHELGRCTNSVVKYELMRPSNKAPLLVLCEDHRGRMVKHQCCPGCGYFCTAGNFMECQPESSISHRFHKDCASRVNNASYCPHCGEESSKAKEVTIAKADTTSTVTPVPGQEKGSALEGRADTTTGSAAGPPLSEDDKLQGAASHVPEGFDPTGPAGLGRPTPGLSQGPGKETLESALIALDSEKPKKLRFHPKQLYFSARQGELQKVLLMLVDGIDPNFKMEHQNKRSPLHAAAEAGHVDICHMLVQAGANIDTCSEDQRTPLMEAAENNHLEAVKYLIKAGALVDPKDAEGSTCLHLAAKKGHYEVVQYLLSNGQMDVNCQDDGGWTPMIWATEYKHVDLVKLLLSKGSDINIRDNEENICLHWAAFSGCVDIAEILLAAKCDLHAVNIHGDSPLHIAARENRYDCVVLFLSRDSDVTLKNKEGETPLQCASLNSQVWSALQMSKALQDSAPDRPSPVERIVSRDIARGYERIPIPCVNAVDSEPCPSNYKYVSQNCVTSPMNIDRNITHLQYCVCIDDCSSSNCMCGQLSMRCWYDKDGRLLPEFNMAEPPLIFECNHACSCWRNCRNRVVQNGLRARLQLYRTRDMGWGVRSLQDIPPGTFVCEYVGELISDSEADVREEDSYLFDLDNKDGEVYCIDARFYGNVSRFINHHCEPNLVPVRVFMAHQDLRFPRIAFFSTRLIEAGEQLGFDYGERFWDIKGKLFSCRCGSPKCRHSSAALAQRQASAAQEAQEDGLPDTSSAAAADPL
Q: For B1, which binding is on record?
A: Its binding is “no binding”.
